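High-content imaging measures how much a compound reduces mutant TorsinA puncta in engineered kidney-derived cells over two days of exposure.
Each compound was tested as a titration series, and the potency was fitted from that series.
The value is the fitted concentration for inhibiting the mislocalization phenotype; a lower value means higher potency.
Calls follow curve class: class 4 is inactive, active curve classes score 40-100, and other curves are filed inconclusive with low scores.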

Values are in µM.
Every entry below has the call inconclusive.
These entries are mostly ones the record files as inconclusive; other results of the assay are not listed here.
Potencies fitted to partial, single-point or poorly fitting curves are rough.
Some entries filed as inconclusive have a full curve.
Activity scores are not listed here.

- CC(C)=CCC/C(C)=C/CC/C(C)=C/C(=O)OCC(=O)[C@@]1(O)CC[C@H]2[C@@H]3CCC4=CC(=O)C=C[C@]4(C)[C@H]3[C@@H](O)C[C@@]21C : fitted potency 10 µM (inhibitor, partial curve, poor fit)
- CCOC(=O)c1ccc(N)cc1 : fitted potency 35.48 µM (inhibitor, single point)
- O=C(Nc1ccc([N+](=O)[O-])cc1Cl)c1cc(Cl)ccc1O : fitted potency 1.413 µM (inhibitor, full curve, poor fit)
- CC(C)NCC(O)c1ccc(O)c(O)c1 (stereo not drawn) : fitted potency 35.48 µM (inhibitor, single point)
- CCCCCN(CCCCC)C(=O)C(CCC(=O)O)NC(=O)c1ccc(Cl)c(Cl)c1 (stereo not drawn) : fitted potency 35.48 µM (inhibitor, single point)
- Nc1cc(C(F)(F)F)ccc1S : fitted potency 11.22 µM (inhibitor, partial curve)
- CN(C)c1ccc(O)c2c1C[C@H]1C[C@H]3[C@H](N(C)C)C(=O)C(C(N)=O)=C(O)[C@@]3(O)C(=O)C1=C2O : fitted potency 35.48 µM (inhibitor, single point)
- COC(=O)C1=C(C)NC(C)=C(C(=O)OCCCN2CCC(c3ccccc3)(c3ccccc3)CC2)C1c1cccc([N+](=O)[O-])c1 (stereo not drawn) : fitted potency 8.912 µM (inhibitor, partial curve, poor fit)
- CCC1=C(C)CN(C(=O)NCCc2ccc(S(=O)(=O)NC(=O)NC3CCC(C)CC3)cc2)C1=O (stereo not drawn) : fitted potency 35.48 µM (inhibitor, single point)
- CN1CCCCC1CCN1c2ccccc2Sc2ccc(S(C)=O)cc21 (stereo not drawn) : fitted potency 15.85 µM (inhibitor, partial curve, poor fit)
- CN(C)CCOC(c1ccccc1)c1ccc(Br)cc1 (stereo not drawn) : fitted potency 12.59 µM (inhibitor, partial curve, poor fit)
- C#C[C@]1(O)CC[C@H]2[C@@H]3CCC4=CC(=O)CC[C@@H]4[C@H]3CC[C@@]21C : fitted potency 3.548 µM (inhibitor, full curve)
- CC1(C)CCC(C)(C)c2cc(NC(=O)c3ccc(C(=O)O)cc3)ccc21 : fitted potency 17.78 µM (inhibitor, partial curve, poor fit)
- CCCCc1oc2ccccc2c1C(=O)c1cc(I)c(OCCN(CC)CC)c(I)c1 : fitted potency 12.59 µM (inhibitor, partial curve)
- O[C@@H](COc1cccc2ncccc12)CN1CCN(C2c3ccccc3[C@@H]3[C@H](c4ccccc42)C3(F)F)CC1 (stereo partly drawn) : fitted potency 7.08 µM (inhibitor, partial curve, poor fit)
- COC(=O)Nc1nc2ccc(S(=O)c3ccccc3)cc2[nH]1 (stereo not drawn) : fitted potency 1 µM (inhibitor, full curve, poor fit)
- CN(C)C/C=C(/c1ccc(Br)cc1)c1cccnc1 : fitted potency 35.48 µM (inhibitor, single point)
- Cc1c(Cl)cccc1Nc1ccccc1C(=O)O : fitted potency 35.48 µM (inhibitor, single point)
- CCO[C@@H]1O[C@H](C(COCc2ccccc2)OCc2ccccc2)[C@H](OCc2ccccc2)[C@H]1O (stereo partly drawn) : fitted potency 17.78 µM (inhibitor, partial curve, poor fit)

2 of the entries, repeated:

structure,fitted potency (µM),curve as filed
CCC1=C(C)CN(C(=O)NCCc2ccc(S(=O)(=O)NC(=O)NC3CCC(C)CC3)cc2)C1=O (stereo not drawn),35.48,"inhibitor, single point"
CCOC(=O)c1ccc(N)cc1,35.48,"inhibitor, single point"

Source: PubChem BioAssay AID1645839 (NCATS, 2021).